Strings that start with PEPTIDE1 are HELM notation: dots part the residues, brackets hold end groups and non-standard residues.
Assay: general procedure: Fmoc solid-phase peptide synthesis; 2-Chloro-trityl chloride resin; HBTU
Details: conjugation step

With “PEPTIDE1{[Thy].[dR].[dR].[Cha].[dR].[Cha].[dR].[Cha].F.F.[NBDen]}$$$$V2.0” the conjugation yield was 73%.

— paper PMC9159100 (Chemical Science, 2022)
